No constants are given. Whether binding was seen depends on the method and setting. Some entries that bind do so weakly or less than the wild type. Tags and fused reporters may be left off the sequences shown.

Test [1] has as its target T1, Endoglin (ENG/CD105) K285R mutant, 3×FLAG-tagged, expressed on Hela cells (human) (UniProt P17813).
T1 sequence: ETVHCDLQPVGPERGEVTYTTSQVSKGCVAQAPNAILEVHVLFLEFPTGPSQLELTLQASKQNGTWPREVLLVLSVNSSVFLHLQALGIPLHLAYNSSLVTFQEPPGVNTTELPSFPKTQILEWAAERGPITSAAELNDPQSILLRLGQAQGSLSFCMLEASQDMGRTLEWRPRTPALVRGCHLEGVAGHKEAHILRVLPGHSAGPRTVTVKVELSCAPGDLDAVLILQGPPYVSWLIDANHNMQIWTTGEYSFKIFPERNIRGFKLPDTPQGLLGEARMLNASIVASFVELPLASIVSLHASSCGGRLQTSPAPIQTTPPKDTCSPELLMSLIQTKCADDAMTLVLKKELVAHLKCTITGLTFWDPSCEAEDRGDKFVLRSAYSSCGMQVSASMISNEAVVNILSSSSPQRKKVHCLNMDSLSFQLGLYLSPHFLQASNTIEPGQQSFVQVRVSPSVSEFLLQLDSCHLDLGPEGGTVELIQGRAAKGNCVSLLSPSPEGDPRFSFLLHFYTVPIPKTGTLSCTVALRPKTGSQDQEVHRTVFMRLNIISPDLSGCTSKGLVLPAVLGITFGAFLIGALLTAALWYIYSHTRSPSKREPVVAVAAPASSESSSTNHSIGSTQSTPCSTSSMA
The test is described as follows: binding of soluble ligand to living cells, Western blot of the cell lysate; Hela cells transfected with ENG-3×FLAG (WT or K285R), starved overnight, treated with OPA-S-S-alkyne at various concentrations (10 min, room temperature, quenched with 1 M glycine) or untreated, washed, incubated with 25 ng/ml BMP9 at 4 °C for 2 h, washed, lysed; BMP9 detected by anti-BMP9 blot; only the binder purified. In general terms: Immunoblotting shows a protein as a band on a membrane.

Test [2] concerns the target T2, Endoglin (ENG/CD105), wild type, 3×FLAG-tagged, expressed on Hela cells (human) (UniProt P17813).
T2 sequence: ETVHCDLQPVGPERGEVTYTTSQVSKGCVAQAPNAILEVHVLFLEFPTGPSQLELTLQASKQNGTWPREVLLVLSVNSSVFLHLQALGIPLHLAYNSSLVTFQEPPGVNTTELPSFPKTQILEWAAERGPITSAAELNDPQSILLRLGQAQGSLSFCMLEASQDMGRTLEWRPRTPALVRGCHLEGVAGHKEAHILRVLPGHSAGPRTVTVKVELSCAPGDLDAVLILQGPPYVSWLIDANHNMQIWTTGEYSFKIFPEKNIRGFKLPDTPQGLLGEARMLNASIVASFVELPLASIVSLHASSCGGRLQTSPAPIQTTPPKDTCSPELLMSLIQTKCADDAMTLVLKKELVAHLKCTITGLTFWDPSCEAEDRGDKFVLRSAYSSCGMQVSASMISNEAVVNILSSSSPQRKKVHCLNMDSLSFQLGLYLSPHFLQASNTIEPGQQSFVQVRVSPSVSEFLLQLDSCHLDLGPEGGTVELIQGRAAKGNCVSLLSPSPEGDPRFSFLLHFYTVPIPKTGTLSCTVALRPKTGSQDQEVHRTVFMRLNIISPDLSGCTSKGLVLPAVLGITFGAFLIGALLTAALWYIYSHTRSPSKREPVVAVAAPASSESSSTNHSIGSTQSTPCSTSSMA
Described as above.

B1: bone morphogenetic protein 9 (BMP9) (ligand, UniProt Q9UK05 320-429)
chain: SAGAGSHCQKTSLRVNFEDIGWDSWIIAPKEYEAYECKGGCFFPLADDVTPTKHAIVQTLVHLKFPTKVGKACCVPTKLSPISVLYKDDMGVPTLKYHYEGMSVAECGCR
B1: the binding entry in test [1] and in test [2] was “binds” each time.

For the origin of these results see publication PMC11001985.
